PubChem BioAssay AID504791 – Drosophila RNAi Screening Center – 2011
The deposit covers about 23,000 reagents; shown is a random part of those that have a named target and a result. In the full data, 199 (0.86%) are marked active. 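Plate-scaled ratios behind the calls are not deposited; printed light signals are raw; many rows marked increased or decreased are still called inactive.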 Reagents against one gene are numbered here. Names joined by + are all predicted targets of the reagent.

Aim: 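Factors in Argonaute-based small RNA production and activity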 (primary screen)
Cells: Drosophila S2-derived reporter cells
Reagents: long dsRNA against Drosophila genes, about 150-250 ng dsRNA per well (siRNA assay); about 80-120 ng (miRNA assay)
Timing: about 5 days (siRNA assay); about 4 days (miRNA assay)
Conditions: copper sulfate induction of reporters: 25 µM (siRNA assay); 200 mM stated (miRNA assay), 1-2 days before reading
Detection: 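Per-well ratio of Renilla over firefly light, expressed relative to that plate's average ratio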
Reading the numbers: siRNA reporter hit score: higher = 3 marks a strong hit with raised ratio; -3 a strong hit with lowered ratio
Hit rule: 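a well was a first-pass pick when its plate-scaled ratio rose above 1.5 (siRNA assay) or 1.6 (miRNA assay), or dropped below 0.6; a gene counted only if two separate dsRNAs agreed on retest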

siRNA reporter hit score | stable siRNA reporter change | miRNA reporter change | stable assay Renilla, run 1 (luminescence) | stable assay firefly, run 1 (luminescence) | Call | Gene | reagent no.
– | – | reporter ratio raised past the hit cutoff | 7511 | 3.29e5 | inactive | CG10479 | 1
– | – | – | 4667 | 2.17e5 | inactive | CG32767 | 1
– | – | – | 5831 | 2.60e5 | inactive | CG12682 | 1
– | – | – | 7306 | 3.17e5 | inactive | Wdr92 | 1
– | – | – | 7147 | 3.16e5 | inactive | CG7231 | 1
– | – | – | 5211 | 4.56e5 | inactive | His4:CG33883 + His4:CG33889 + His4:CG33899 + 20 more | 1
– | – | – | 6995 | 2.89e5 | inactive | cona | 1
– | – | – | 10153 | 6.51e5 | inactive | Ir67c | 1
– | – | – | 6603 | 4.26e5 | inactive | TwdlR | 1
– | – | – | 5686 | 2.79e5 | inactive | Pdha | 1
– | – | – | 9311 | 2.58e5 | inactive | Pka-R1 | 1
– | – | – | 7674 | 3.91e5 | inactive | Pka-R1 | 2
– | – | – | 6068 | 5.63e5 | inactive | rost | 1
– | – | – | 3952 | 3.04e5 | inactive | B-H1 | 1
– | – | – | 9526 | 6.20e5 | inactive | B-H1 | 2
– | – | – | 5378 | 3.18e5 | inactive | IP3K2 | 1
– | – | – | 4408 | 3.14e5 | inactive | IP3K2 | 2
– | – | – | 2911 | 2.77e5 | inactive | IP3K2 | 3
– | – | – | 7454 | 5.01e5 | inactive | PGRP-LB | 1
– | – | – | 7691 | 3.85e5 | inactive | DnaJ-H | 1
– | – | – | 4346 | 3.74e5 | inactive | sinu | 1
– | – | – | 8574 | 5.23e5 | inactive | Gr22a | 1
– | – | – | 7278 | 6.39e5 | inactive | Fer1 | 1
– | – | – | 6294 | 4.42e5 | inactive | Fer1 | 2
– | – | – | 8151 | 5.69e5 | inactive | Arr1 | 1
– | – | – | 8790 | 6.79e5 | inactive | Rnp4F | 1
– | – | – | 6780 | 2.54e5 | inactive | CG13461 | 1
– | – | – | 6478 | 1.49e6 | inactive | Dyrk2 | 1
– | – | – | 6594 | 3.99e5 | inactive | CG1138 | 1
– | – | – | 4983 | 2.43e5 | inactive | puf | 1
– | – | – | 5226 | 4.47e5 | inactive | puf | 2
– | – | – | 5407 | 5.22e5 | inactive | emp | 1
– | – | – | 10021 | 1.72e6 | inactive | emp | 2
– | – | – | 6806 | 4.09e5 | inactive | CG7194 | 1
– | – | – | 5782 | 4.53e5 | inactive | Wnt5 | 1
– | – | – | 4591 | 4.05e5 | inactive | CG11164 | 1
– | – | – | 7602 | 2.96e5 | inactive | CG3769 | 1
– | – | – | 6903 | 4.17e5 | inactive | CG9837 | 1
– | – | – | 7164 | 3.72e5 | inactive | CG11562 | 1
– | – | – | 10806 | 4.13e5 | inactive | Mettl2 | 1
– | – | – | 7186 | 4.73e5 | inactive | zen2 | 1
– | – | – | 6982 | 4.15e5 | inactive | CG4537 | 1
– | reporter ratio lowered past the hit cutoff | – | 6854 | 6.22e5 | inactive | CG15425 | 1
– | – | – | 6172 | 4.74e5 | inactive | Jhbp11 | 1
– | – | – | 1.70e5 | 6.09e5 | inactive | Sgf29 | 1
– | – | – | 5195 | 3.07e5 | inactive | Tmf | 1
– | – | – | 9311 | 1.08e6 | inactive | LManII | 1
– | – | – | 6066 | 2.92e5 | inactive | Lap1 | 1
– | – | – | 7107 | 2.46e5 | inactive | CG16959 | 1
– | – | – | 4200 | 4.57e5 | inactive | CG40378 (retired record) | 1
– | – | – | 8475 | 4.69e5 | inactive | CG40378 (retired record) | 2
– | – | – | 6552 | 5.68e5 | inactive | CG30395 | 1
– | – | – | 4924 | 3.95e5 | inactive | CG15059 | 1
– | – | – | 7194 | 3.87e5 | inactive | PGS1 | 1
– | – | – | 12124 | 4.46e5 | inactive | Pitslre | 1
– | – | – | 5275 | 3.49e5 | inactive | Pitslre | 2
– | – | – | 6630 | 3.58e5 | inactive | Ser | 1
– | – | – | 3704 | 4.08e5 | inactive | Rrp1 | 1
– | – | – | 6750 | 3.88e5 | inactive | CLS | 1
3 | – | – | 5654 | 4.09e5 | inactive | CG12672 | 1
– | – | – | 2911 | 3.18e5 | inactive | Ntl | 1
– | – | reporter ratio raised past the hit cutoff | 3956 | 2.81e5 | inactive | Hex-t2 | 1
– | – | – | 8204 | 5.51e5 | inactive | CG13039 | 1
3 | – | – | 7528 | 3.05e5 | inactive | RhoBTB | 1
– | – | – | 7206 | 3.28e5 | inactive | CG4017 | 1
– | – | – | 4200 | 4.04e5 | inactive | Tim8 | 1
– | – | – | 6758 | 3.53e5 | inactive | PKD | 1
– | – | – | 4083 | 3.98e5 | inactive | Kr-h1 | 1
– | – | – | 1.49e5 | 4.02e5 | inactive | Kr-h1 | 2
– | – | – | 4471 | 3.37e5 | inactive | Ptpmeg2 | 1
– | – | – | 5942 | 3.56e5 | inactive | Ptpmeg2 | 2
– | – | – | 5155 | 3.94e5 | inactive | Ptpmeg2 | 3
– | – | – | 6299 | 2.97e5 | inactive | Trmt61 | 1
– | – | – | 6544 | 3.88e5 | inactive | egl | 1
– | – | – | 9695 | 7.50e5 | inactive | DCTN4-p62 | 1
– | – | – | 7562 | 3.56e5 | inactive | CG6621 | 1
– | – | – | 7414 | 3.61e5 | inactive | ADD1 | 1
– | – | – | 5787 | 4.23e5 | inactive | Poxn | 1
– | – | – | 7098 | 4.62e5 | inactive | Poxn | 2
– | – | – | 7103 | 4.74e5 | inactive | awd | 1
– | – | – | 1.07e5 | 2.64e5 | inactive | CG9338 | 1
– | reporter ratio raised past the hit cutoff | – | 50124 | 6.23e5 | inactive | CG8728 | 1
– | – | – | 11649 | 4.11e5 | inactive | PPO1 | 1
– | – | – | 8005 | 4.64e5 | inactive | Pbp95 | 1
– | – | – | 3624 | 4.76e5 | inactive | srp | 1
– | – | – | 3627 | 2.12e5 | inactive | srp | 2
– | – | – | 4740 | 4.24e5 | inactive | srp | 3
– | – | – | 7970 | 3.79e5 | inactive | DptA | 1
3 | – | – | 7639 | 3.52e5 | inactive | Nup93-2 | 1
– | – | – | 7094 | 3.86e5 | inactive | CG31010 | 1
– | – | – | 8210 | 3.49e5 | inactive | CG10752 | 1
– | – | – | 9814 | 2.29e5 | inactive | ex | 1
– | – | – | 3419 | 3.48e5 | inactive | toe | 1
– | – | – | 5679 | 3.09e5 | inactive | toe | 2
3 | – | – | 6111 | 3.55e5 | inactive | Naa80 | 1
– | – | – | 7210 | 4.51e5 | inactive | Unc50 | 1
– | – | – | 7383 | 4.65e5 | inactive | DENR | 1
– | – | – | 7575 | 4.60e5 | inactive | dmpd | 1
– | – | – | 5120 | 4.75e5 | inactive | CG6700 | 1
– | – | – | 3903 | 3.22e5 | inactive | CG33467 | 1
– | – | – | 4004 | 4.29e5 | inactive | CG33467 | 2
– | – | – | 8994 | 5.34e5 | inactive | raw | 1
– | – | – | 6926 | 3.98e5 | inactive | raw | 2
– | – | – | 5722 | 3.13e5 | inactive | CG5323 | 1
– | – | – | 24664 | 2.39e6 | inactive | CG11141 | 1
– | – | – | 7179 | 5.53e5 | inactive | Sk2 | 1

No new results follow: 13 of the entries above.
siRNA reporter hit score | stable siRNA reporter change | miRNA reporter change | stable assay Renilla, run 1 (luminescence) | stable assay firefly, run 1 (luminescence) | Call | Gene | reagent no.
– | – | – | 7306 | 3.17e5 | inactive | Wdr92 | 1
– | – | – | 7147 | 3.16e5 | inactive | CG7231 | 1
– | – | – | 5211 | 4.56e5 | inactive | His4:CG33883 + His4:CG33889 + His4:CG33899 + 20 more | 1
– | – | – | 6995 | 2.89e5 | inactive | cona | 1
– | – | – | 10153 | 6.51e5 | inactive | Ir67c | 1
– | – | – | 6603 | 4.26e5 | inactive | TwdlR | 1
– | – | – | 5686 | 2.79e5 | inactive | Pdha | 1
– | – | – | 9311 | 2.58e5 | inactive | Pka-R1 | 1
– | – | – | 7674 | 3.91e5 | inactive | Pka-R1 | 2
– | – | – | 6068 | 5.63e5 | inactive | rost | 1
– | – | – | 3952 | 3.04e5 | inactive | B-H1 | 1
– | – | – | 9526 | 6.20e5 | inactive | B-H1 | 2
– | – | – | 5378 | 3.18e5 | inactive | IP3K2 | 1
